This is an account of results in patent US20240325575A1 (WHITEHEAD INSTITUTE FOR BIOMEDICAL RESEARCH, published 2024).

The chains behind the UniProt entries cited, without tags or fusion partners. Where a name states a change or a piece, a line headed by the entry shows the natural chain unless it says otherwise. Residues count along the entry.
UniProt P14434: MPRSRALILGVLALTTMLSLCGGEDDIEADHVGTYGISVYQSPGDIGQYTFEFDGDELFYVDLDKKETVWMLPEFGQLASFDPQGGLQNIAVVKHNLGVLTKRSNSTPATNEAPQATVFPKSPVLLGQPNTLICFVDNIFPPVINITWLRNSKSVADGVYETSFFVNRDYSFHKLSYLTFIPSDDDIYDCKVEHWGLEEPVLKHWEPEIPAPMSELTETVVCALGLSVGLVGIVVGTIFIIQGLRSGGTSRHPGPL
UniProt P14483: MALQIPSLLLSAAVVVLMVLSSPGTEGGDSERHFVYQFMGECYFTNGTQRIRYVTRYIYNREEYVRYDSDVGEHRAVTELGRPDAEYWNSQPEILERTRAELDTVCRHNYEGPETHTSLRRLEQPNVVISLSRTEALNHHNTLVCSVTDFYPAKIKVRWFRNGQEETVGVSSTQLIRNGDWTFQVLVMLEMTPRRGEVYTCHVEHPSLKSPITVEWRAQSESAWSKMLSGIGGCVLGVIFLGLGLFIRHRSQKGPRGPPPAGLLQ
UniProt P05555, residues 17-1153: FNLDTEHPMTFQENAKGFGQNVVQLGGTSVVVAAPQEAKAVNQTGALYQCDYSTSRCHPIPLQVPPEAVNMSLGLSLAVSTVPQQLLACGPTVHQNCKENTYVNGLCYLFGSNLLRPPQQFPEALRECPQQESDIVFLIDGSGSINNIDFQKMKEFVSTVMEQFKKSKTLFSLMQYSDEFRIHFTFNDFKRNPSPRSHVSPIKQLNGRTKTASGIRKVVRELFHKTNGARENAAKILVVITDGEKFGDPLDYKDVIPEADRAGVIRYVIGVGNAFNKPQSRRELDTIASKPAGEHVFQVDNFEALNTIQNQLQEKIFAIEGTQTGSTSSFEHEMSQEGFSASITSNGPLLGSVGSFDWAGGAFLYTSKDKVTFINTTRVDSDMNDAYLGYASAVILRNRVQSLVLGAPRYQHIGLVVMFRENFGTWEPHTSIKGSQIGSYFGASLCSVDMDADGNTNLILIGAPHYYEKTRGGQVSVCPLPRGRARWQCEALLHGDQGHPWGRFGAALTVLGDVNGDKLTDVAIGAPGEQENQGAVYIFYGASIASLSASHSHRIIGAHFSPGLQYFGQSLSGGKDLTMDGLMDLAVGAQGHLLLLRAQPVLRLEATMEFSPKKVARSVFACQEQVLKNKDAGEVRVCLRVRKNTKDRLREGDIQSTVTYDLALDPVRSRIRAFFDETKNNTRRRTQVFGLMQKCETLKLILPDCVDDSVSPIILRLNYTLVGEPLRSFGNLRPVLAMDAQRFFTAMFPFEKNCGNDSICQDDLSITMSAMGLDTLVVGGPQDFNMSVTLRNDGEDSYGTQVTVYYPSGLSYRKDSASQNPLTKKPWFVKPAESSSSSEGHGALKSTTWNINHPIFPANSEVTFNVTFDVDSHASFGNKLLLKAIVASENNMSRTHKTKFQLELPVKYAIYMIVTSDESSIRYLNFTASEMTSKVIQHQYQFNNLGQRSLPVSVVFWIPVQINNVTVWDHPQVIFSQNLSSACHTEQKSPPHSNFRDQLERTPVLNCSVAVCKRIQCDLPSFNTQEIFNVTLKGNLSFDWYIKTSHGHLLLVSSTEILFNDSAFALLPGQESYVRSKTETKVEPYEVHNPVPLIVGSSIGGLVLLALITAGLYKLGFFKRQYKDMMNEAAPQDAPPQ

These are yes or no findings as the source states them, for the method shown. Some results given as binding are weak or reduced against the parent protein; the word gives no strength.

For experiment [1], the target named is Class II MHC (mouse, on splenocytes and lymphoid organs) (mouse) (UniProt P14434+P14483). In words: in vivo PET competition; different amounts of unlabeled DC8 injected before 18F-DC8 dimer.
Experiment [2] deals with CD11b (mouse, on the CD11b+ mutuDC dendritic cell line and on myeloid cells in vivo) (mouse) (UniProt P05555). In words: FACS on the CD11b+ mutuDC cell line in vitro.

B1: unlabeled DC8 (anti Class II MHC VHH monomer used as competitor) (VHH)
VHH: QVQLQESGGGLVQPGGSLRLSCTASGFTFSTYYMSWVRKAPGKGPEWVSVMNSSGGDTRYADFVKGRFTISRDNAKNTLYLQMNSLKPEDTALYYCAQGRSDIYPTFTRGQGTQVTVSS
Turning to B1, the binding result in experiment [1] is “binds”.

B2: DC13 (anti CD11b VHH) monomer, sortase-labeled at the C-terminus (VHH)
VHH: QVQLQESGGGLVQTGGSLRLSCAASGVDFNWYSMGWFRQAPGKEREYVASIDQGGELDYAISVKGRFTISRDNAKNMVYLQMNSLKPEDTAVYYCAADFSGRGASNPDKYKYWGQGTQVTVSS
modifications: C-terminal (Gly)3 continues as -PEG12-Cys(Alexa647)-PEG5-Lys(azide)
On to B2, for which the binding entry in experiment [2] is on record as “binds”.
